Laboratory results: PubChem BioAssay AID1508588 (Peter MacCallum Cancer Centre, 2020)

Test: 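Knock-downs boosting vemurafenib effects on melanoma cell growth or lactate release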 (primary screen)
Cell system: human WM266.4 melanoma cells (BRAF V600 mutant)
Reagent: siRNA pool against human genes, 40 nM
Time to read-out: 96 h from transfection to read-out
Treatment: vemurafenib 300 nM (about IC25), added 48 h after transfection, for 48 h; comparison arm got DMSO vehicle only
Measurement: 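Ratios to non-targeting siRNA for cell gain, counted as DAPI nuclei after minus before drug and averaged over two replicates, and for absorbance-read medium lactate per cell; both binned into fold-change classes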
Direction: cell gain with vemurafenib: higher = more cell gain than with non-targeting siRNA; lactate per cell with vemurafenib: higher = more lactate made per cell
Hit rule: 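Enhancement is called by pairing each knock-down's vehicle-arm and drug-arm fold-change classes for viability or glycolysis; which class combinations qualify is not given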
Calls: active = enhances vemurafenib effect; inactive = no enhancement seen
This is an unselected part of about 18,000 deposited reagents. In the full data, 790 (4.4%) are marked active. 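Calls rest on a combination of fold-change classes in drug and vehicle arms, not all shown here.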 Some reagents were tested in more than one well and are listed for each.

What is on record for PRSS2 (GeneID 5645)?
cell gain with vemurafenib: 0.94; lactate per cell with vemurafenib: 0.74; Call: inactive

For NCR2 (GeneID 9436), what does the deposit list?
cell gain with vemurafenib: 0.92; lactate per cell with vemurafenib: 0.8; Call: inactive

For R3HDM2 (GeneID 22864), how do the results read?
cell gain with vemurafenib: 0.68; lactate per cell with vemurafenib: 0.56; Call: inactive

How did the screen score SHANK2 (GeneID 22941)?
cell gain with vemurafenib: 0.09; lactate per cell with vemurafenib: 0.92; Call: inactive

How did the screen score THEM5 (GeneID 284486)?
cell gain with vemurafenib: 0.49; lactate per cell with vemurafenib: 0.72; Call: inactive

Which result is listed for ETV3L (GeneID 440695)?
cell gain with vemurafenib: 0.22; lactate per cell with vemurafenib: 0.66; Call: inactive

With POMK (GeneID 84197), how do the results read?
cell gain with vemurafenib: 0.55; lactate per cell with vemurafenib: 1.31; Call: inactive

Which result is listed for POMK (GeneID 84197)?
cell gain with vemurafenib: 0.55; lactate per cell with vemurafenib: 1.48; Call: inactive

With SLC25A12 (GeneID 8604), what was measured?
cell gain with vemurafenib: 0.73; lactate per cell with vemurafenib: 0.52; Call: inactive

For PGBD5 (GeneID 79605), what does the deposit list?
cell gain with vemurafenib: 0.93; lactate per cell with vemurafenib: 0.67; Call: inactive

For MYOD1 (GeneID 4654), what does the deposit list?
cell gain with vemurafenib: 1.44; lactate per cell with vemurafenib: 0.66; Call: inactive

Which result is listed for DTX1 (GeneID 1840)?
cell gain with vemurafenib: 0.92; lactate per cell with vemurafenib: 0.97; Call: inactive

With KCNK2 (GeneID 3776), how do the results read?
cell gain with vemurafenib: 0.56; lactate per cell with vemurafenib: 1.45; Call: inactive

What did the screen give for AKAP19 (GeneID 84281)?
cell gain with vemurafenib: 0.66; lactate per cell with vemurafenib: 0.22; Call: inactive

With DTNBP1 (GeneID 84062), what was measured?
cell gain with vemurafenib: 0.27; lactate per cell with vemurafenib: 0.82; Call: inactive

How did the screen score PARM1 (GeneID 25849)?
cell gain with vemurafenib: 0.37; lactate per cell with vemurafenib: 0.22; Call: inactive

With SIGLEC6 (GeneID 946), how do the results read?
cell gain with vemurafenib: 1; lactate per cell with vemurafenib: 0.53; Call: inactive

How did the screen score ZNF703 (GeneID 80139)?
cell gain with vemurafenib: 0.62; lactate per cell with vemurafenib: 0.94; Call: inactive

With APOE (GeneID 348), what was measured?
cell gain with vemurafenib: 0.39; lactate per cell with vemurafenib: 1.31; Call: inactive

With AFAP1L2 (GeneID 84632), how do the results read?
cell gain with vemurafenib: 0.52; lactate per cell with vemurafenib: 0.91; Call: inactive

Which result is listed for KIAA0319L (GeneID 79932)?
cell gain with vemurafenib: 0.47; lactate per cell with vemurafenib: 0.9; Call: inactive

What is on record for OR4D2 (GeneID 124538)?
cell gain with vemurafenib: 0.53; lactate per cell with vemurafenib: 0.54; Call: inactive

What is on record for BAZ2B (GeneID 29994)?
cell gain with vemurafenib: 0.62; lactate per cell with vemurafenib: 1.52; Call: inactive

For NFIX (GeneID 4784), what was measured?
cell gain with vemurafenib: 0.39; lactate per cell with vemurafenib: 0.86; Call: inactive

For ARRDC5 (GeneID 645432), what does the deposit list?
cell gain with vemurafenib: 1.11; lactate per cell with vemurafenib: 0.72; Call: inactive

With ZNF749 (GeneID 388567), what does the deposit list?
cell gain with vemurafenib: 1.62; lactate per cell with vemurafenib: 0.81; Call: inactive

For RNF44 (GeneID 22838), what does the deposit list?
cell gain with vemurafenib: 1; lactate per cell with vemurafenib: 0.8; Call: inactive

For TIMD4 (GeneID 91937), what was measured?
cell gain with vemurafenib: 1.03; lactate per cell with vemurafenib: 0.4; Call: inactive

What did the screen give for GIGYF1 (GeneID 64599)?
cell gain with vemurafenib: 0.79; lactate per cell with vemurafenib: 0.73; Call: inactive

How did the screen score YPEL1 (GeneID 29799)?
cell gain with vemurafenib: 0.74; lactate per cell with vemurafenib: 0.64; Call: inactive

How did the screen score PLEC (GeneID 5339)?
cell gain with vemurafenib: 1.06; lactate per cell with vemurafenib: 0.38; Call: active

What is on record for EXOSC1 (GeneID 51013)?
cell gain with vemurafenib: 0.32; lactate per cell with vemurafenib: 1.33; Call: inactive

With IGFBP6 (GeneID 3489), what does the deposit list?
cell gain with vemurafenib: 0.1; lactate per cell with vemurafenib: 0.62; Call: inactive

With OR2Y1 (GeneID 134083), what was measured?
cell gain with vemurafenib: 0.65; lactate per cell with vemurafenib: 0.34; Call: inactive

With PLPBP (GeneID 11212), how do the results read?
cell gain with vemurafenib: 0.62; lactate per cell with vemurafenib: 1.74; Call: inactive

For C20orf96 (GeneID 140680), how do the results read?
cell gain with vemurafenib: 0.34; lactate per cell with vemurafenib: 1.09; Call: inactive

What did the screen give for ARF1 (GeneID 375)?
cell gain with vemurafenib: 0.72; lactate per cell with vemurafenib: 0.52; Call: inactive

What did the screen give for SNX16 (GeneID 64089)?
cell gain with vemurafenib: 1.25; lactate per cell with vemurafenib: 0.64; Call: inactive

What is on record for ARPC5L (GeneID 81873)?
cell gain with vemurafenib: 0.72; lactate per cell with vemurafenib: 1.36; Call: inactive

With C9orf50 (GeneID 375759), what was measured?
cell gain with vemurafenib: 1.14; lactate per cell with vemurafenib: 0.9; Call: inactive
